The supplement of paper PMC10338343
± gives the standard deviation. The list shows a part of the results. Many of these values have a large error.

Tested on: EfPiwi piRISC loaded with L1MC piRNA (26 nt)
Experiment: pre-steady-state target cleavage rate (min^-1); guide: L1MC piRNA 5'p-UAACUAAAUACUAUGCAAGCUGUAGG; MIWI and MILI are mouse PIWI proteins and EfPiwi is from a freshwater sponge; tags in brackets are library labels; higher = faster piRNA-guided slicing of the target
Method in brief: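 The method was Cleave-'n-Seq, in which uncleaved targets from a transcribed, DNA-blocked target RNA library were sequenced after exposure to active affinity-purified piRISC carrying one synthetic guide, with or without GTSF1 partner protein. Reactions contained 0.1 nM library, 1 nM piRISC and, where present, 500 nM GTSF1 in HEPES–potassium acetate buffer at 33 °C for 0–8 or 0–960 min. Reads were normalised to depth and to weakly complementary targets, three trials were pooled, and k3 was capped at 0.0001 min^-1. The pre-steady-state cleavage rate came from a burst-and-steady-state fit.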

[1] = auxiliary factor: 500 nM Ephydatia muelleri Gtsf1
[2] = auxiliary factor: none (no Gtsf1)

Sequence | pre-steady-state target cleavage rate [1] | pre-steady-state target cleavage rate [2]
UCCUGGUUCAGCUUGCAUAGAAUUUAGUUA | 0.00201 ± 0.0026 | 0.00126 ± 0.0071
UCCUGCUACGAGCUUGCAUAGUAUUUAGUUA | 0.00866 ± 0.0022 | 0.000686 ± 0.0083
UCCUGGAUGUGCCUGCAUAGUAUUUAGUUA | 0.00933 ± 0.0036 | 0.000834 ± 0.013
UCCUGGAACAGCUUGCAUAGAUUUUAGUUA | 0.000858 ± 0.0058 | 0.000599 ± 0.013
UCCUGGAUCAGCUUGCAGAGUAUUUAGUUA | 0.00715 ± 0.0022 | 0.000394 ± 0.021
UCCUGGAUCAGCUAGCAUAGUAUUAAGUUA | 0.00318 ± 0.002 | 0.000534 ± 0.013
UCCUGGAUCUGCUUGCAUAGUAUAUAGUUA | 0.0643 ± 0.018 | 0.011 ± 0.0069
UCCUGGUACAGCAUGCAAAGUAUUUAGUUA | 0.00646 ± 0.0023 | 0.00142 ± 0.006
UCCUGGUACAGUUUGCAUAGUAUUUAGUUA | 0.00421 ± 0.0025 | 0.000612 ± 0.021
UCCUGGAUGUCGAACGUUAGUAUUUAGAUA | < 0.0001 | < 0.0001
UCCUGGAUCAGCUUGGAUAGUAUAUAGUUA | 0.0019 ± 0.0039 | 0.000556 ± 0.016
UCCUGGAUCAGCUUGCAAAGUAUUUAGAUA | 0.00558 ± 0.0029 | 0.000262 ± 0.028
UCCUGGAUGAGCUUGCAUAGUUAUUUAGUUA | 0.000968 ± 0.0054 | 0.000679 ± 0.013
UCCUGGAUGAGCUUGCAUAGUUUUUUGUUA | 0.00102 ± 0.005 | 0.000409 ± 0.026
UCCUGGAUGUGCAUGCAUAGUAUUAAGUUA | 0.00157 ± 0.0042 | 0.000579 ± 0.017
UCCUGCUACACCUUGCAUUGUAUUUAGUUA | 0.00323 ± 0.0025 | 0.000313 ± 0.023
UCCUGGAUGUCGAACGAUAGUAUUUAGUGA | 0.000341 ± 0.017 | 0.000117 ± 0.034
UCCUGGAUGAGCAUUGCAUAGUAUUUAGUUA | 0.008 ± 0.0029 | 0.00132 ± 0.0061
UCCUCCUACAGCUUGCUUAGAAUUUAGUUA | 0.00419 ± 0.002 | 0.000913 ± 0.0053
UCCUGGAUGAGCAUGCAUAGUAUUAAGUUA | 0.00264 ± 0.0032 | 0.00229 ± 0.0052

3 entries drawn at random from the list so far:
Sequence | pre-steady-state target cleavage rate [1] | pre-steady-state target cleavage rate [2]
UCCUGGUACAGUUUGCAUAGUAUUUAGUUA | 0.00421 ± 0.0025 | 0.000612 ± 0.021
UCCUGGAUCAGCUUGCAAAGUAUUUAGAUA | 0.00558 ± 0.0029 | 0.000262 ± 0.028
UCCUGGAUCAGCUUGCAGAGUAUUUAGUUA | 0.00715 ± 0.0022 | 0.000394 ± 0.021

Additional results:

Sequence | pre-steady-state target cleavage rate [1] | pre-steady-state target cleavage rate [2]
UCCUGCUACACGAUGCAUAGUAUUUAGUUA | 0.00905 ± 0.0024 | 0.000601 ± 0.011
UCCUGGAUGUCGAUGCAUAGUAUCUUAGUUA | 0.00105 ± 0.0061 | 0.000679 ± 0.012
UCCUGCAACAGGUUGCAUAGUAUUUAGUUA | 0.018 ± 0.0035 | 0.000158 ± 0.029
UCCUGGAACAGGUUGCAUAGUAUUUACUUA | 0.00101 ± 0.0036 | 0.000421 ± 0.013
UCCUCGUACAGCUUGCAUACUAUUUAGUUA | 0.0224 ± 0.0069 | 0.00118 ± 0.0074
UCCUGGAACAGCUUGCAUUGUAUAUAGUUA | 0.00303 ± 0.0036 | 0.000648 ± 0.014
UCCUGGAACGAGCUUGCAUAGUAUUUAGUUA | 0.00926 ± 0.0022 | 0.000917 ± 0.0087
UCCUGGAUGUCGAACGUAUGUAUUUAGUAA | 0.000243 ± 0.021 | < 0.0001
UCCUGCUAGAGCUUGCAUAGUAUUAAGUUA | 0.00624 ± 0.0022 | 0.000702 ± 0.0084
UCCUCCUACAGCUAGCAUAGUAUUUAGUUA | 0.0119 ± 0.0038 | 0.000917 ± 0.0069
UCCUGCUAGAGCUUGGAUAGUAUUUAGUUA | 0.00499 ± 0.0016 | 0.000614 ± 0.0079
UCCUGGAACAGCUUGCAUAGUAUUCUAGUUA | 0.00277 ± 0.0018 | 0.000499 ± 0.017
UCCUGGAUGUCGAACCAUAGUGUUUAGUUA | 0.000127 ± 0.024 | 0.000207 ± 0.028
UCCUGGAUGAGCUUGCAUAGUAGUUUAGUUA | 0.00964 ± 0.0035 | 0.0124 ± 0.0079
UCCUGGAUGUGCUUGCAUAGUAUUUAAGUUA | 0.0404 ± 0.015 | 0.000956 ± 0.02
UCCUCCUACAGCUUGCAUAGGAUUUAGUUA | 0.0113 ± 0.0028 | 0.00638 ± 0.0035
UCCUGGAUGUCGAUGCAUUGUAUAUAGUUA | 0.000203 ± 0.019 | 0.000305 ± 0.025
UCCUGGAACAGCUUGCAAAGUAUUAAGUUA | 0.00406 ± 0.003 | 0.000308 ± 0.023
UCCUGGAACAGCAUGCAUAGUAUUUUGUUA | 0.00267 ± 0.0022 | 0.000412 ± 0.019
UCCUGGAUCAGCUUGCAUUGUAUUUAGUUA | 0.0179 ± 0.0038 | 0.00127 ± 0.0078

Sequence | pre-steady-state target cleavage rate [1] | pre-steady-state target cleavage rate [2]
UCCUCCUACAGCUUGCAUAGUAUUUAGCUA | 0.00335 ± 0.0016 | 0.000483 ± 0.0095
UCCUGGAACAGCUUGCAUAGUGAUUUAGUUA | 0.0023 ± 0.0045 | 0.000645 ± 0.011
UCCUGGAUCAGCUUGCAUAGUUUUUAGUUA | 0.00592 ± 0.0018 | 0.000944 ± 0.0099
UCCUGCUACUGCUAGCAUAGUAUUUAGUUA | 0.0129 ± 0.0034 | 0.000765 ± 0.0073
UCCUGGAACAGCUUGCAUAGUCAUUUAGUUA | 0.00111 ± 0.0045 | 0.000444 ± 0.015
UCCUGGAUCAGCUUGCAAAGUAUUUUGUUA | 0.0012 ± 0.0034 | 0.000697 ± 0.013
UCCUGGAACAGCUUGCAAACUAUUUAGUUA | 0.00228 ± 0.0037 | 0.000768 ± 0.011
UCCUGGUACACGCUUGCAUAGUAUUUAGUUA | 0.00613 ± 0.0031 | 0.00165 ± 0.0095
UCCUGGAACAGCUUGCAAUGUAUUUAGUUA | 0.00454 ± 0.0035 | 0.000858 ± 0.01
UCCUGCUACAGCUUCCUUAGUAUUUAGUUA | 0.00425 ± 0.0019 | 0.000438 ± 0.013
UCCUGGUACAGCUUGCAUAGUAUGUUAGUUA | 0.00488 ± 0.0028 | 0.00115 ± 0.0079
UCCUGGUAAAGCUUGCAUAGUAUUUAGUUA | 0.00606 ± 0.002 | 0.000716 ± 0.015
UCCUGGAAGAGCUUGCAUAGUAAUUAGUUA | 0.00806 ± 0.0027 | 0.00195 ± 0.0076
UCCUGGAUGAGCAUGCAUAGUAUUUAGUUA | 0.0207 ± 0.0065 | 0.00167 ± 0.0052
UCCUGGAUGUCCUAGCAUAGUAUAUAGUUA | 0.000458 ± 0.0074 | 0.000342 ± 0.021
UCCUGCUACAGCUUCGAUAGUAUUUAGUUA | 0.00756 ± 0.0026 | 0.00116 ± 0.0055
UCCUGGAAGAGCAUGCAUAGUAUUUAGUUA | 0.0132 ± 0.004 | 0.00169 ± 0.0076
UCCUGGAUGUGCUUGCAUAGUUAUUAGUUA | 0.00199 ± 0.0063 | 0.000303 ± 0.034
UCCUGGUACAGCAUGCAUAGUAUUAAGUUA | 0.00442 ± 0.002 | 0.000506 ± 0.018
UCCUGGAUCAGCUUGCAUAGUAUAUUAGUUA | 0.127 ± 0.043 | 0.000753 ± 0.018
